Measurements taken from the supplement of paper PMC10849652.
This is one part of the list.

Sequences of proteins named here, by UniProt entry; tags and fusion partners are left off. A change or cut given only in a name is not applied to a line headed by its entry.
UniProt P56937: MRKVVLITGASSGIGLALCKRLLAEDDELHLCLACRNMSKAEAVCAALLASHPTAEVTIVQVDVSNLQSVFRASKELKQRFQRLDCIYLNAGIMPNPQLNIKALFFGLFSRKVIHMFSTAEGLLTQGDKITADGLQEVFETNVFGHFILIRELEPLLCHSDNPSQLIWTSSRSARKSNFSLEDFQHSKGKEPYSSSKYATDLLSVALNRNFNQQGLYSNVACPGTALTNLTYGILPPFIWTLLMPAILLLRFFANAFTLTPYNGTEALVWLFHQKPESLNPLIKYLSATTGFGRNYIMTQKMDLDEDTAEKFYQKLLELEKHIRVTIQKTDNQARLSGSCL
UniProt P09429: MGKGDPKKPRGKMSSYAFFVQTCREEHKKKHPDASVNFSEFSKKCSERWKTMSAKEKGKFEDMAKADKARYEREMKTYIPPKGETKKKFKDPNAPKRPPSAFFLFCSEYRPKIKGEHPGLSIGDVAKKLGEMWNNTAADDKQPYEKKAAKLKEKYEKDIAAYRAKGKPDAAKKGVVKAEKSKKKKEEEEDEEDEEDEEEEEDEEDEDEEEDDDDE
UniProt Q58FG1, whole entry, looked up: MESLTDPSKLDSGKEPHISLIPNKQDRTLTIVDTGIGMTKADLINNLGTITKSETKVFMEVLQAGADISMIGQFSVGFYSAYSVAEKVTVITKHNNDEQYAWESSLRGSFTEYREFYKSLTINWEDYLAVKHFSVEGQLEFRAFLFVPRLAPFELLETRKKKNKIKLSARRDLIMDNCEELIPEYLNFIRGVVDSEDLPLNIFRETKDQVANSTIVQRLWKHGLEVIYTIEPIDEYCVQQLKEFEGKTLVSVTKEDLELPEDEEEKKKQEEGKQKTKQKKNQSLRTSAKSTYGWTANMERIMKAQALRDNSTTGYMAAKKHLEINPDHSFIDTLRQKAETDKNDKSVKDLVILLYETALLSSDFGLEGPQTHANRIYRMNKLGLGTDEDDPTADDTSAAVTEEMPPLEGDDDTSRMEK
UniProt P35914: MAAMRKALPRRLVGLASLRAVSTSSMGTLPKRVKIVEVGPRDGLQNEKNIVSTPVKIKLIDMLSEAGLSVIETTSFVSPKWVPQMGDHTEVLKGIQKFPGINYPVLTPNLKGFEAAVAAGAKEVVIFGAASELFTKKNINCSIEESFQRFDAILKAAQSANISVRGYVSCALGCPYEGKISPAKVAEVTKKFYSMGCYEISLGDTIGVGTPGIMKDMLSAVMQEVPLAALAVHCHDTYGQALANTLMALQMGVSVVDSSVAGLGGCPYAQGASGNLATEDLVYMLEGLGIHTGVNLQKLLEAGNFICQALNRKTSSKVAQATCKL
UniProt O14979: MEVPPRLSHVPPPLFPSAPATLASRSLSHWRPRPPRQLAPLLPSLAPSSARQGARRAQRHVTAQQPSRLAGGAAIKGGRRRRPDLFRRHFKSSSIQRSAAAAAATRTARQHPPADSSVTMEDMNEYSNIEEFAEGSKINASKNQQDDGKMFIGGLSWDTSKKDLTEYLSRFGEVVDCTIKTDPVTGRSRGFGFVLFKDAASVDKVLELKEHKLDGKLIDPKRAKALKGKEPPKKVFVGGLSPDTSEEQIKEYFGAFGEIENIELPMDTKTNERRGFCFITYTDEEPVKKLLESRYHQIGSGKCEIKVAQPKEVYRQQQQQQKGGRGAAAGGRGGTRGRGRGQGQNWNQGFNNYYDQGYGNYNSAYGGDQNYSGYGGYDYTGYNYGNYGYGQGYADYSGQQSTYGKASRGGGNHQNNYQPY
UniProt P82970: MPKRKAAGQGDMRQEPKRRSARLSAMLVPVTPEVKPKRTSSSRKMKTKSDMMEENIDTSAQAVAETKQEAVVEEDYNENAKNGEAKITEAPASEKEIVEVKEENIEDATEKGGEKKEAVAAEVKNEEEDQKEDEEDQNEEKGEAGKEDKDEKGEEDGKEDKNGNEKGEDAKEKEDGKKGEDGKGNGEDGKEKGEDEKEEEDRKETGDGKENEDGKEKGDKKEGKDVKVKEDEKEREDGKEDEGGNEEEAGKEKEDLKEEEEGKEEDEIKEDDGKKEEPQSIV
UniProt P14866: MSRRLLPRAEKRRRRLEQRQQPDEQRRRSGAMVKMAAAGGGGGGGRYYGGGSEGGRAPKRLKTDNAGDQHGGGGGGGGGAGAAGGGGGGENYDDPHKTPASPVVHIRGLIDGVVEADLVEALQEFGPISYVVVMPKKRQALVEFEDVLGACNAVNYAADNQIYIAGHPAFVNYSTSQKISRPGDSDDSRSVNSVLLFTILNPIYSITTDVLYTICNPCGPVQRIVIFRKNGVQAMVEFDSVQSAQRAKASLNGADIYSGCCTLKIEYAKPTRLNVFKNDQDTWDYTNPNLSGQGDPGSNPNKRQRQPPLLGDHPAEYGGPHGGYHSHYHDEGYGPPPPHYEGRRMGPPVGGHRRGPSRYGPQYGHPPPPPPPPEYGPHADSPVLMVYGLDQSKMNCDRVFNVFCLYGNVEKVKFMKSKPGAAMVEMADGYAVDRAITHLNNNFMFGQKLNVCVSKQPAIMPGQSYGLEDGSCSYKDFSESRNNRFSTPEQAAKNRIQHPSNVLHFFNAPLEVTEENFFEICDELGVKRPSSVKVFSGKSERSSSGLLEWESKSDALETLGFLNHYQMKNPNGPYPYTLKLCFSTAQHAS
UniProt P34932: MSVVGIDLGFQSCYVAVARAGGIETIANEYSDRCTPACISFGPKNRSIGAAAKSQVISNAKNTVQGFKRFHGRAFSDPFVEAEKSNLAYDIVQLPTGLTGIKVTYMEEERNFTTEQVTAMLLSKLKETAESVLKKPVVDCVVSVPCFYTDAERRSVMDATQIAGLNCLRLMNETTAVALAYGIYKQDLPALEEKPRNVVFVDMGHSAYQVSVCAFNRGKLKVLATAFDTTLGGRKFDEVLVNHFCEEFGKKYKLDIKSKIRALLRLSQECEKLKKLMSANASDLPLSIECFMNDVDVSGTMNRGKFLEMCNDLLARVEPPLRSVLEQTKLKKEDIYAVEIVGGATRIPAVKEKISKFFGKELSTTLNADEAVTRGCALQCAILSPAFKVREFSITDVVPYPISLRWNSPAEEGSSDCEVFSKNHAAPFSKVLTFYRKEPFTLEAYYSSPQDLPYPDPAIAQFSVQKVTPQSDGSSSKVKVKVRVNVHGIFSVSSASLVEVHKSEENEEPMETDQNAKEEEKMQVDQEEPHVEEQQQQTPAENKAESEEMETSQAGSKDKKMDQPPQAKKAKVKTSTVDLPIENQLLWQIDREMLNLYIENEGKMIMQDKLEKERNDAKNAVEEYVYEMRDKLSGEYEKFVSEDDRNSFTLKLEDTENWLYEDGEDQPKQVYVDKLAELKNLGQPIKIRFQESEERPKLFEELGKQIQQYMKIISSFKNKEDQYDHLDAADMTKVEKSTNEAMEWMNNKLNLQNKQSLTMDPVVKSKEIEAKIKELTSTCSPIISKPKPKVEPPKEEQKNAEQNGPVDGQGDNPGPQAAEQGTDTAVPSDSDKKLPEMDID
UniProt Q9BTY7: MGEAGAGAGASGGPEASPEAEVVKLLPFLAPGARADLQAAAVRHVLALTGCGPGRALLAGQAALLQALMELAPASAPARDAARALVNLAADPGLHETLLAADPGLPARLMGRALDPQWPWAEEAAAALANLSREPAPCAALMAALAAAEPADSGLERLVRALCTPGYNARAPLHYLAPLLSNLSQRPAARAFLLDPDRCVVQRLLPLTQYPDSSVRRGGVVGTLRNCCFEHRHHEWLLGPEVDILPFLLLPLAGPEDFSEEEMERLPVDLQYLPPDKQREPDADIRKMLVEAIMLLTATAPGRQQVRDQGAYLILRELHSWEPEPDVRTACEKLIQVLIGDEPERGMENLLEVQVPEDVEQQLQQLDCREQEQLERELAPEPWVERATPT
UniProt Q9BUJ2: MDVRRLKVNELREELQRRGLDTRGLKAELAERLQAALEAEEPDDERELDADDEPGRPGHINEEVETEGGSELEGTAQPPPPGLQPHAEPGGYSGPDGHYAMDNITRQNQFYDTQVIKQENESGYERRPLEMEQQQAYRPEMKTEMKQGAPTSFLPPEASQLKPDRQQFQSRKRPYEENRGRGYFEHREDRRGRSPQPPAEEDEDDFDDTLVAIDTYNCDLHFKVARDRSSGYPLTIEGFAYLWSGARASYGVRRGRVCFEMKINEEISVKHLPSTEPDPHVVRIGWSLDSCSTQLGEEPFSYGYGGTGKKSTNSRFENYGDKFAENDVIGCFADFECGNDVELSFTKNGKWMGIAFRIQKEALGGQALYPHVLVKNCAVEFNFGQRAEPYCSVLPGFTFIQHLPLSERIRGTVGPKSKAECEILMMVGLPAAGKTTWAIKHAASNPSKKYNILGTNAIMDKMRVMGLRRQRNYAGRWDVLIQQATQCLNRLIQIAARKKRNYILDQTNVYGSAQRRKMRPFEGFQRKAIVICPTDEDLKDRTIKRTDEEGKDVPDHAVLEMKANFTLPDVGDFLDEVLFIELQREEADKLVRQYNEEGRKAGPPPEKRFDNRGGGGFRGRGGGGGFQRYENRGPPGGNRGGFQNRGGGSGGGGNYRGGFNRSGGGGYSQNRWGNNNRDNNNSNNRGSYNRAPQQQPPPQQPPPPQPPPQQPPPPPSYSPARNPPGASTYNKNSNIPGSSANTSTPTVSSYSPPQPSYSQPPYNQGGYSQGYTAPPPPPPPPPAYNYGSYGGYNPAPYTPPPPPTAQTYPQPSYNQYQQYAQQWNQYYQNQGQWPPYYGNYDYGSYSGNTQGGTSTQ
UniProt Q8IWL3: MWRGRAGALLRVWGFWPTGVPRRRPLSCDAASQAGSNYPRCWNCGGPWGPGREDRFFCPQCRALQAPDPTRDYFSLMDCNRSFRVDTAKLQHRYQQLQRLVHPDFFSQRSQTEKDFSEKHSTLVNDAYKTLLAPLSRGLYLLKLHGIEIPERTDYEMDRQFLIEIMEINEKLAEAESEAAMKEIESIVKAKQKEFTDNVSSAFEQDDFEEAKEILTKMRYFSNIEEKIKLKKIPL
UniProt O00291: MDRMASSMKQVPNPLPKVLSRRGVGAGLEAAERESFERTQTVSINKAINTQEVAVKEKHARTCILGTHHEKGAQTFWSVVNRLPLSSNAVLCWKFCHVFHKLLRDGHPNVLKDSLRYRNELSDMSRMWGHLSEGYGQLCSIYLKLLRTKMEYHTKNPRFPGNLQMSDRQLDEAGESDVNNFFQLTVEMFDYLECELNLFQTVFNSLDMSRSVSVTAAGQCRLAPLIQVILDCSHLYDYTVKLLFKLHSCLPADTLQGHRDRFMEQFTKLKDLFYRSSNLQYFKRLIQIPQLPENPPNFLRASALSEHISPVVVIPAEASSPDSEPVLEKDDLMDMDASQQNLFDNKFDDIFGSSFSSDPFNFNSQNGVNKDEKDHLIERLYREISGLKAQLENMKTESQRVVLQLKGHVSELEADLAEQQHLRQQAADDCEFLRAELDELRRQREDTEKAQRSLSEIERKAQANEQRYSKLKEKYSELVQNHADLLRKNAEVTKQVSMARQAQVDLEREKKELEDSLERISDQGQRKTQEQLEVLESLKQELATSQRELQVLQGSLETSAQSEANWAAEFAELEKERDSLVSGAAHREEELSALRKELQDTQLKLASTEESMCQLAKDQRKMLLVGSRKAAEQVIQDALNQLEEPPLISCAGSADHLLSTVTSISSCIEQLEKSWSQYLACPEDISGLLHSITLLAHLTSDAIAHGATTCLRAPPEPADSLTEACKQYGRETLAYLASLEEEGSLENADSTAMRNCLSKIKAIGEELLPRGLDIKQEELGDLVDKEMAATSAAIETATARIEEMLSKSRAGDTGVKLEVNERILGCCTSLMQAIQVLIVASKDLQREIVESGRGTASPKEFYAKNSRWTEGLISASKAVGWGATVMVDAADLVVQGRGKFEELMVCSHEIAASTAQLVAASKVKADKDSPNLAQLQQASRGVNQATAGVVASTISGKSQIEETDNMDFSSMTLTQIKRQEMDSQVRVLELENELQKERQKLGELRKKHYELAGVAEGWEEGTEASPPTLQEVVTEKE
UniProt P34931, whole entry, looked up: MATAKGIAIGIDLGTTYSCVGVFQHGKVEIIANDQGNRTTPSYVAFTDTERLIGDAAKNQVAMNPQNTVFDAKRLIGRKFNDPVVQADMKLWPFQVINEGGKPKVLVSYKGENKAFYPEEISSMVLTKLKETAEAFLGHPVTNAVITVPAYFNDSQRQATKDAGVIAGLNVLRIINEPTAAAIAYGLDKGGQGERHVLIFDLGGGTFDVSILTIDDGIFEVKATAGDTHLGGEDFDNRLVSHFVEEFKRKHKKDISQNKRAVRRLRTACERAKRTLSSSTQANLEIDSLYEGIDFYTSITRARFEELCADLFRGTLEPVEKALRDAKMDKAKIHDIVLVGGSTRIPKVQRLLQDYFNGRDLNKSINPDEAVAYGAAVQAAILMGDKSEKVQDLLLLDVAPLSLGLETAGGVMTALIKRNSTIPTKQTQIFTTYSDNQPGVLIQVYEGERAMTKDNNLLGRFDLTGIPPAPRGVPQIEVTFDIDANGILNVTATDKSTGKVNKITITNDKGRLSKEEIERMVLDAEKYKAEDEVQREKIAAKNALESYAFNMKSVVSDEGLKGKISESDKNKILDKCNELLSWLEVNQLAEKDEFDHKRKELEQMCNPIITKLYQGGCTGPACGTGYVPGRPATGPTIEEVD

How the values were obtained:
Assay in all cases: log2 fold change, soluble protein after heating vs DMSO (PISA); higher = thermal stabilisation; K562 cells, 10 uM, 30 min; active = over 0.2 and 3.5 SD of the protein, either way, in both replicates (recomputed)
saracatinib = compound: CN1CCN(CCOc2cc(OC3CCOCC3)c3c(Nc4c(Cl)ccc5c4OCO5)ncnc3c2)CC1 [saracatinib]
Outline: (§1)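 K562 cells at 2×10^6 cells/mL were treated with 10 μM compound for 30 min. Aliquots were heated for 3 min across 48°C-58°C, pooled, and extracted in PBS with 0.5% NP-40 at 4°C; soluble protein was the supernatant after 21,000xg for 90 min. Soluble protein was quantified by TMTpro 16plex LC-MS/MS with channel sums equalised, and reported as log2 fold change in thermal stability against DMSO controls, with values from duplicates.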

sotrastaurin = compound: CN1CCN(c2nc(C3=C(c4c[nH]c5ccccc45)C(=O)NC3=O)c3ccccc3n2)CC1 [sotrastaurin]
Outline: as §1

alvocidib = compound: CN1CC[C@H](c2c(O)cc(O)c3c(=O)cc(-c4ccccc4Cl)oc23)[C@H](O)C1 [alvocidib]
Outline: as §1

Tubastatin A = compound: CN1CCc2c(c3ccccc3n2Cc2ccc(C(=O)NO)cc2)C1 [Tubastatin A]
Outline: as §1

[1] = compound: CNC(=O)C1=CC=CC=C1NC2=NC(=NC=C2Cl)NC3=C(C=C(C=C3)N4CCOCC4)OC
Outline: as §1

defactinib = compound: CNC(=O)c1ccc(Nc2ncc(C(F)(F)F)c(NCc3nccnc3N(C)S(C)(=O)=O)n2)cc1 [defactinib]
Outline: as §1

rucaparib = compound: CNCc1ccc(-c2[nH]c3cc(F)cc4c3c2CCNC4=O)cc1 [rucaparib]
Outline: as §1

[2] = compound: CNc1nc(-c2ccc3c(N)n[nH]c3c2)cc(N2C[C@@H](C(=O)NC3CCCCC3)CC[C@H]2C)n1
Outline: as §1

encorafenib = compound: COC(=O)N[C@@H](C)CNc1nccc(-c2cn(C(C)C)nc2-c2cc(Cl)cc(NS(C)(=O)=O)c2F)n1 [encorafenib]
Outline: as §1

[3] = compound: COC(=O)[C@H](CCSC)NC(=O)C1=C(C=C(C=C1)NC[C@H](CS)N)C2=CC=CC=C2
Outline: as §1

Measured: log2 fold change

HSD17B7 (UniProt P56937)
inactive: saracatinib -0.004 | sotrastaurin -0.031 | alvocidib -0.195 | Tubastatin A 0.012 | [1] 0.048 | defactinib 0.017 | rucaparib -0.113 | [2] -0.014 | encorafenib 0.059 | [3] -0.018

HNRNPD isoform 4 (UniProt Q14103)
inactive: saracatinib 0.137 | sotrastaurin 0.073 | alvocidib 0.425 | Tubastatin A 0.039 | [1] -0.022 | defactinib 0.017 | rucaparib 0.156 | [2] 0 | encorafenib 0.085 | [3] -0.105

HMGB1 (UniProt P09429)
inactive: saracatinib 0.01 | sotrastaurin 0.013 | alvocidib -0.044 | Tubastatin A -0.038 | [1] 0.017 | defactinib 0.006 | rucaparib 0.054 | [2] -0.026 | encorafenib -0.022 | [3] 0.035

HSP90AA4P (UniProt Q58FG1)
inactive: saracatinib -0.041 | sotrastaurin 0.018 | alvocidib 0.109 | Tubastatin A -0.022 | [1] 0.069 | defactinib -0.004 | rucaparib -0.042 | [2] -0.028 | encorafenib 0.037 | [3] 0.087

HIBCH (UniProt Q6NVY1)
inactive: saracatinib -0.025 | sotrastaurin -0.009 | alvocidib -0.093 | Tubastatin A 0.041 | [1] 0.036 | defactinib -0.034 | rucaparib -0.037 | [2] 0.042 | encorafenib -0.015 | [3] -0.029

HMCN1 (UniProt Q96RW7)
inactive: saracatinib 0.493 | sotrastaurin 0.259 | alvocidib 0.004 | Tubastatin A -0.145 | [1] 0.323 | defactinib -0.106 | rucaparib -0.288 | [2] 0.171 | encorafenib 0.038 | [3] 0.133

HMGCL (UniProt P35914)
inactive: saracatinib 0.057 | sotrastaurin -0.022 | alvocidib -0.055 | Tubastatin A -0.084 | [1] -0.003 | defactinib -0.043 | rucaparib -0.027 | [2] -0.029 | encorafenib -0.02 | [3] 0.037

HNRNPDL (UniProt O14979)
inactive: saracatinib 0.029 | sotrastaurin 0.091 | alvocidib 0.333 | Tubastatin A -0.052 | [1] 0.297 | defactinib 0.277 | rucaparib 0.248 | [2] -0.048 | encorafenib 0.033 | [3] 0.029

HNRNPK isoform 3 (UniProt P61978)
inactive: saracatinib 0.04 | sotrastaurin 0.059 | Tubastatin A 0.034 | [1] -0.05 | defactinib 0.096 | rucaparib 0.032 | [2] -0.035 | encorafenib -0.041 | [3] -0.028

HMGN5 (UniProt P82970)
inactive: saracatinib -0.01 | sotrastaurin 0.012 | alvocidib 0.039 | Tubastatin A -0.011 | [1] 0.02 | defactinib 0.028 | rucaparib -0.063 | [2] -0.04 | encorafenib 0.033 | [3] -0.002

HNRNPL (UniProt P14866)
inactive: saracatinib -0.087 | sotrastaurin -0.216 | alvocidib 0.11 | Tubastatin A 0.072 | [1] 0.034 | rucaparib 0.405 | [2] -0.024 | encorafenib 0.049

HSP90AB3P (UniProt Q58FF7)
inactive: saracatinib 0.029 | sotrastaurin 0.008 | alvocidib 0.115 | [1] 0.197 | rucaparib -0.023 | [2] 0.068 | encorafenib 0.049

HTATIP2 isoform 3 (UniProt Q9BUP3)
inactive: saracatinib -0.016 | sotrastaurin 0.023 | Tubastatin A -0.009 | [1] -0.001 | defactinib -0.065 | rucaparib 0.023 | [2] 0.022 | encorafenib 0.01 | [3] -0.016

IARS (UniProt P41252)
inactive: saracatinib -0.143 | sotrastaurin -0.055 | alvocidib 0.237 | Tubastatin A 0.04 | [1] -0.003 | defactinib 0.242 | rucaparib 0.439 | [2] 0.125 | encorafenib 0.213 | [3] 0.027

HPRT1 (UniProt P00492)
inactive: saracatinib 0.05 | sotrastaurin 0.03 | alvocidib -0.046 | Tubastatin A -0.018 | [1] 0.027 | defactinib -0.004 | rucaparib -0.047 | [2] -0.054 | encorafenib -0.004 | [3] 0.005

HSPA4 (UniProt P34932)
inactive: saracatinib 0.021 | sotrastaurin -0.006 | alvocidib -0.046 | Tubastatin A -0.023 | [1] 0.021 | defactinib -0.049 | rucaparib -0.046 | [2] 0.001 | encorafenib 0.018 | [3] 0.013

HGH1 (UniProt Q9BTY7)
inactive: saracatinib -0.125 | sotrastaurin -0.111 | alvocidib 0.012 | Tubastatin A 0.076 | [1] -0.01 | defactinib 0.025 | rucaparib 0.278 | [2] -0.058 | encorafenib 0.151 | [3] -0.064

2 entries drawn at random from the list so far, as already listed:
HTATIP2 isoform 3 (UniProt Q9BUP3)
inactive: saracatinib -0.016 | sotrastaurin 0.023 | Tubastatin A -0.009 | [1] -0.001 | defactinib -0.065 | rucaparib 0.023 | [2] 0.022 | encorafenib 0.01 | [3] -0.016

HSPA4 (UniProt P34932)
inactive: saracatinib 0.021 | sotrastaurin -0.006 | alvocidib -0.046 | Tubastatin A -0.023 | [1] 0.021 | defactinib -0.049 | rucaparib -0.046 | [2] 0.001 | encorafenib 0.018 | [3] 0.013

The results go on.

HNRNPUL1 (UniProt Q9BUJ2)
inactive: saracatinib -0.016 | sotrastaurin 0.039 | Tubastatin A 0 | [1] 0.008 | defactinib 0.018 | rucaparib 0.075 | [2] 0.034 | encorafenib 0.063 | [3] -0.011

HSCB (UniProt Q8IWL3)
inactive: saracatinib 0.004 | sotrastaurin 0.001 | alvocidib -0.033 | Tubastatin A -0.074 | [1] -0.018 | defactinib -0.193 | [2] -0.099 | [3] 0.011

HNRNPA2B1 (UniProt P22626)
inactive: saracatinib 0.021 | sotrastaurin 0.03 | alvocidib 0.314 | Tubastatin A -0.029 | [1] 0.067 | defactinib 0.435 | rucaparib 0.349 | [2] -0.036 | encorafenib 0.056 | [3] 0.069

HIP1 (UniProt O00291)
inactive: saracatinib 0.078 | sotrastaurin -0.079 | Tubastatin A 0.038 | [1] 0.008 | defactinib -0.001 | rucaparib 0.065 | [2] -0.024 | encorafenib -0.048 | [3] -0.001

HNRNPA1 (UniProt P09651)
inactive: saracatinib -0.03 | sotrastaurin 0.024 | alvocidib 0.254 | Tubastatin A 0.023 | [1] 0.016 | defactinib 0.438 | rucaparib 0.338 | [2] 0.068 | encorafenib 0.07 | [3] -0.017

HSP90AB4P (UniProt Q58FF6)
inactive: saracatinib -0.04 | sotrastaurin -0.044 | alvocidib -0.095 | Tubastatin A 0.05 | [1] -0.11 | rucaparib -0.342 | [2] 0.109 | encorafenib 0.167

ICAM5 (UniProt Q9UMF0)
inactive: saracatinib -0.033 | sotrastaurin -0.111 | alvocidib -0.044 | Tubastatin A 0.244 | [1] 0.075 | defactinib -0.034 | rucaparib -0.263 | [2] 0.011 | encorafenib -0.025 | [3] 0.052

HUWE1, A0A087X1S3
inactive: saracatinib -0.272 | sotrastaurin -0.037 | alvocidib -0.013 | Tubastatin A 0 | [1] -0.053 | rucaparib 0.018 | [2] 0.059 | encorafenib 0.012

HIC2 (UniProt Q96JB3)
inactive: saracatinib -0.152 | sotrastaurin -0.236 | Tubastatin A -0.034 | [1] -0.011 | defactinib -0.008 | rucaparib 0.142 | [2] -0.019 | encorafenib 0.045 | [3] 0.089

HMMR isoform 3 (UniProt O75330)
inactive: saracatinib -0.088 | sotrastaurin -0.044 | alvocidib -0.039 | Tubastatin A 0.059 | [1] 0.004 | defactinib -0.02 | rucaparib 0.163 | [2] 0.076 | encorafenib 0.124 | [3] -0.012

HSPA1L (UniProt P34931)
inactive: saracatinib 0.096 | sotrastaurin -0.024 | alvocidib -0.228 | Tubastatin A 0.115 | [1] 0.034 | defactinib -0.015 | rucaparib 0.018 | [2] -0.166 | encorafenib -0.049 | [3] -0.019

HLA-E (UniProt P13747)
inactive: saracatinib 0.007 | sotrastaurin -0.022 | alvocidib -0.064 | Tubastatin A -0.08 | [2] -0.067
